Measured values as given in article PMC6639074.
These are yes or no findings as the source states them, for the method shown. Binding seen in cells or lysates may run through a third protein. A yes stands for co-enrichment or nearness to the bait. Other partners may have been found. For part of these data: Where a sequence is shown, tags or fusion partners need not be part of it.

The chains behind the UniProt entries cited, without tags or fusion partners. Where a name states a change or a piece, a line headed by the entry shows the natural chain unless it says otherwise.
UniProt Q9NP72: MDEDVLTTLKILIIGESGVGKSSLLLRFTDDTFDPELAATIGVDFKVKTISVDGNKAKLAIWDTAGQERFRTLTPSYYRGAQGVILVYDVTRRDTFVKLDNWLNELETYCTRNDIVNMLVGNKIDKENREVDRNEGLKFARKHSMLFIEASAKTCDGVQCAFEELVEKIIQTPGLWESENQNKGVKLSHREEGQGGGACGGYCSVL
UniProt Q9H082: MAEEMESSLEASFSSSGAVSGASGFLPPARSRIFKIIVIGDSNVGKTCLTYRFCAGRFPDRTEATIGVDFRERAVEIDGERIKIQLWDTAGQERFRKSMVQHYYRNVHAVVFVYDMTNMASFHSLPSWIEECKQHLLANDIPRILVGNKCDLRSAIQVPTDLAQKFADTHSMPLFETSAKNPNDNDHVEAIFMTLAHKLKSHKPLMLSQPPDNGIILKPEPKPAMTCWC
UniProt P61006: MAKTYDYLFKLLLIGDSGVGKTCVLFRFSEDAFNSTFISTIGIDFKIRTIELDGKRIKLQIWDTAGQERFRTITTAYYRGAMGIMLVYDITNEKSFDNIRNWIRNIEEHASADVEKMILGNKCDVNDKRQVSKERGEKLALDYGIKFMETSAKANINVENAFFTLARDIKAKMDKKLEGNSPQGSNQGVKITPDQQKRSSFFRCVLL

Experiments:
Assay in all cases: proximity labelling; MitoID: GTPase-BirA*-HA-MAO chimera on mitochondria of transiently transfected HEK293T cells, 50 uM biotin 18 h, streptavidin beads, mass spectrometry, biological triplicates; hits by WD scores and volcano plots against the GDP-locked forms
[1] = biological target: Rab18(Q67L)-BirA*-HA-MAO (human) (UniProt Q9NP72)
[2] = biological target: Rab33B(Q92L)-BirA*-HA-MAO (human) (UniProt Q9H082)
[3] = biological target: T1, RalB(G23V)-BirA*-HA-MAO (human) (UniProt P11234)
T1 sequence: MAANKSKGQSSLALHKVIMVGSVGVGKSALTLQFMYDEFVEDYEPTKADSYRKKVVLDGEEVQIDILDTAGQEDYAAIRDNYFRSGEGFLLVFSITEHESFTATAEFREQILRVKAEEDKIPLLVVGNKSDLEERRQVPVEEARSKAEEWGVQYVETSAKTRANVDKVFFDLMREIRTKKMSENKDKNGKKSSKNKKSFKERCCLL

[4] = biological target: Rab8A(Q67L)-BirA*-HA-MAO (human) (UniProt P61006)

B1: SCFD2 (protein, UniProt Q8WU76 1-684)
chain: MSASGVLSFTQQGWEQVLAKVKRAVVYLDAACAESLHWGCGSTRLLEAVGGPDCHLREFEPDAIGGGAKQPKAVFVLSCLLKGRTVEILRDIICRSHFQYCVVVTTVSHAVHLTANHVPAAAAAEMEGQQPVFEQLEEKLCEWMGNMNYTAEVFHVPLLLAPVAPHFALTPAFASLFPLLPQDVHLLNSARPDKRKLGSLGDVDSTTLTPELLLQIRCLVSGLSSLCEHLGVREECFAVGSLSQVIAADLANYAPAKNRKKTAAGRASVVFVDRTLDLTGAVGHHGDNLVEKIISALPQLPGHTNDVMVNMIALTALHTEEENYNVVAPGCLSQSSDTTAKALWEALLNTKHKEAVMEVRRHLVEAASRENLPIKMSMGRVTPGQLMSYIQLFKNNLKALMNHCGLLQLGLATAQTLKHPQTAKWDNFLAFERLLLQSIGESAMSVVLNQLLPMIKPVTQRTNEDYSPEELLILLIYIYSVTGELTVDKDLCEAEEKVKKALAQVFCEESGLSPLLQKITDWDSSINLTFHKSKIAVDELFTSLRDIAGARSLLKQFKSVYVPGNHTHQASYKPLLKQVVEEIFHPERPDSVDIEHMSSGLTDLLKTGFSMFMKVSRPHPSDYPLLILFVVGGVTVSEVKMVKDLVASLKPGTQVIVLSTRLLKPLNIPELLFATDRLHPDLGF
Question: With B1 as the binder, how does the binding [1] read?
Answer: binds

B2: RUFY3 (protein, UniProt Q7L099 1-469)
chain: MSALTPPTDMPTPTTDKITQAAMETIYLCKFRVSMDGEWLCLRELDDISLTPDPEPTHEDPNYLMANERMNLMNMAKLSIKGLIESALNLGRTLDSDYAPLQQFFVVMEHCLKHGLKAKKTFLGQNKSFWGPLELVEKLVPEAAEITASVKDLPGLKTPVGRGRAWLRLALMQKKLSEYMKALINKKELLSEFYEPNALMMEEEGAIIAGLLVGLNVIDANFCMKGEDLDSQVGVIDFSMYLKDGNSSKGTEGDGQITAILDQKNYVEELNRHLNATVNNLQAKVDALEKSNTKLTEELAVANNRIITLQEEMERVKEESSYILESNRKGPKQDRTAEGQALSEARKHLKEETQLRLDVEKELEMQISMRQEMELAMKMLEKDVCEKQDALVSLRQQLDDLRALKHELAFKLQSSDLGVKQKSELNSRLEEKTNQMAATIKQLEQSEKDLVKQAKTLNSAANKLIPKHH
Question: With B2 as the binder, how does the binding [2] read?
Answer: binds

B3: Rabaptin-5 (protein, UniProt Q15276 1-862)
chain: MAQPGPASQPDVSLQQRVAELEKINAEFLRAQQQLEQEFNQKRAKFKELYLAKEEDLKRQNAVLQAAQDDLGHLRTQLWEAQAEMENIKAIATVSENTKQEAIDEVKRQWREEVASLQAVMKETVRDYEHQFHLRLEQERTQWAQYRESAEREIADLRRRLSEGQEEENLENEMKKAQEDAEKLRSVVMPMEKEIAALKDKLTEAEDKIKELEASKVKELNHYLEAEKSCRTDLEMYVAVLNTQKSVLQEDAEKLRKELHEVCHLLEQERQQHNQLKHTWQKANDQFLESQRLLMRDMQRMEIVLTSEQLRQVEELKKKDQEDDEQQRLNKRKDHKKADVEEEIKIPVVCALTQEESSAQLSNEEEHLDSTRGSVHSLDAGLLLPSGDPFSKSDNDMFKDGLRRAQSTDSLGTSGSLQSKALGYNYKAKSAGNLDESDFGPLVGADSVSENFDTASLGSLQMPSGFMLTKDQERAIKAMTPEQEETASLLSSVTQGMESAYVSPSGYRLVSETEWNLLQKEVHNAGNKLGRRCDMCSNYEKQLQGIQIQEAETRDQVKKLQLMLRQANDQLEKTMKDKQELEDFIKQSSEDSSHQISALVLRAQASEILLEELQQGLSQAKRDVQEQMAVLMQSREQVSEELVRLQKDNDSLQGKHSLHVSLQQAEDFILPDTTEALRELVLKYREDIINVRTAADHVEEKLKAEILFLKEQIQAEQCLKENLEETLQLEIENCKEEIASISSLKAELERIKVEKGQLESTLREKSQQLESLQEIKISLEEQLKKETAAKATVEQLMFEEKNKAQRLQTELDVSEQVQRDFVKLSQTLQVQLERIRQADSLERIRAILNDTKLTDINQLPET
Question: Which binding [2] does the source give for B3 here?
Answer: binds

B4: REPS1/Reps1 (protein, UniProt Q96D71 1-796)
chain: MEGLTLSDAEQKYYSDLFSYCDIESTKKVVVNGRVLELFRAAQLPNDVVLQIMELCGATRLGYFGRSQFYIALKLVAVAQSGFPLRVESINTVKDLPLPRFVASKNEQESRHAASYSSDSENQGSYSGVIPPPPGRGQVKKGSVSHDTVQPRTSADAQEPASPVVSPQQSPPTSPHTWRKHSRHPSGGNSERPLAGPGPFWSPFGEAQSGSSAGDAVWSGHSPPPPQENWVSFADTPPTSTLLTMHPASVQDQTTVRTVASATTAIEIRRQSSSYDDPWKITDEQRQYYVNQFKTIQPDLNGFIPGSAAKEFFTKSKLPILELSHIWELSDFDKDGALTLDEFCAAFHLVVARKNGYDLPEKLPESLMPKLIDLEDSADVGDQPGEVGYSGSPAEAPPSKSPSMPSLNQTWPELNQSSEQWETFSERSSSSQTLTQFDSNIAPADPDTAIVHPVPIRMTPSKIHMQEMELKRTGSDHTNPTSPLLVKPSDLLEENKINSSVKFASGNTVADGYSSSDSFTSDPEQIGSNVTRQRSHSGTSPDNTAPPPPPPRPQPSHSRSSSLDMNRTFTVTTGQQQAGVVAHPPAVPPRPQPSQAPGPAVHRPVDADGLITHTSTSPQQIPEQPNFADFSQFEVFAASNVNDEQDDEAEKHPEVLPAEKASDPASSLRVAKTDSKTEEKTAASAPANVSKGTTPLAPPPKPVRRRLKSEDELRPEVDEHTQKTGVLAAVLASQPSIPRSVGKDKKAIQASIRRNKETNTVLARLNSELQQQLKDVLEERISLEVQLEQLRPFSHL
Question: How did the binding [3] turn out when B4 was run?
Answer: binds

B5: RALGAPB (protein, UniProt Q86X10 1-1494)
chain: MYSEWRSLHLVIQNDQGHTSVLHSYPESVGREVANAVVRPLGQVLGTPSVAGSENLLKTDKEVKWTMEVICYGLTLPLDGETVKYCVDVYTDWIMALVLPKDSIPLPVIKEPNQYVQTILKHLQNLFVPRQEQGSSQIRLCLQVLRAIQKLARESSLMARETWEVLLLFLLQINDILLAPPTVQGGIAENLAEKLIGVLFEVWLLACTRCFPTPPYWKTAKEMVANWRHHPAVVEQWSKVICALTSRLLRFTYGPSFPAFKVPDEDASLIPPEMDNECVAQTWFRFLHMLSNPVDLSNPAIISSTPKFQEQFLNVSGMPQELNQYPCLKHLPQIFFRAMRGISCLVDAFLGISRPRSDSAPPTPVNRLSMPQSAAVSTTPPHNRRHRAVTVNKATMKTSTVSTAHASKVQHQTSSTSPLSSPNQTSSEPRPLPAPRRPKVNSILNLFGSWLFDAAFVHCKLHNGINRDSSMTAITTQASMEFRRKGSQMSTDTMVSNPMFDASEFPDNYEAGRAEACGTLCRIFCSKKTGEEILPAYLSRFYMLLIQGLQINDYVCHPVLASVILNSPPLFCCDLKGIDVVVPYFISALETILPDRELSKFKSYVNPTELRRSSINILLSLLPLPHHFGTVKSEVVLEGKFSNDDSSSYDKPITFLSLKLRLVNILIGALQTETDPNNTQMILGAMLNIVQDSALLEAIGCQMEMGGGENNLKSHSRTNSGISSASGGSTEPTTPDSERPAQALLRDYALNTDSAAGLLIRSIHLVTQRLNSQWRQDMSISLAALELLSGLAKVKVMVDSGDRKRAISSVCTYIVYQCSRPAPLHSRDLHSMIVAAFQCLCVWLTEHPDMLDEKDCLKEVLEIVELGISGSKSKNNEQEVKYKGDKEPNPASMRVKDAAEATLTCIMQLLGAFPSPSGPASPCSLVNETTLIKYSRLPTINKHSFRYFVLDNSVILAMLEQPLGNEQNDFFPSVTVLVRGMSGRLAWAQQLCLLPRGAKANQKLFVPEPRPVPKNDVGFKYSVKHRPFPEEVDKIPFVKADLSIPDLHEIVTEELEERHEKLRSGMAQQIAYEIHLEQQSEEELQKRSFPDPVTDCKPPPPAQEFQTARLFLSHFGFLSLEALKEPANSRLPPHLIALDSTIPGFFDDIGYLDLLPCRPFDTVFIFYMKPGQKTNQEILKNVESSRTVQPHFLEFLLSLGWSVDVGRHPGWTGHVSTSWSINCCDDGEGSQQEVISSEDIGASIFNGQKKVLYYADALTEIAFVVPSPVESLTDSLESNISDQDSDSNMDLMPGILKQPSLTLELFPNHTDNLNSSQRLSPSSRMRKLPQGRPVPPLGPETRVSVVWVERYDDIENFPLSELMTEISTGVETTANSSTSLRSTTLEKEVPVIFIHPLNTGLFRIKIQGATGKFNMVIPLVDGMIVSRRALGFLVRQTVINICRRKRLESDSYSPPHVRRKQKITDIVNKYRNKQLEPEFYTSLFQEVGLKNCSS
Question: How did the binding [3] turn out when B5 was run?
Answer: binds

B6: synaptotagmin-like 4 (SYTL4) (protein, UniProt Q96C24 1-671)
chain: MSELLDLSFLSEEEKDLILSVLQRDEEVRKADEKRIRRLKNELLEIKRKGAKRGSQHYSDRTCARCQESLGRLSPKTNTCRGCNHLVCRDCRIQESNGTWRCKVCAKEIELKKATGDWFYDQKVNRFAYRTGSEIIRMSLRHKPAVSKRETVGQSLLHQTQMGDIWPGRKIIQERQKEPSVLFEVPKLKSGKSALEAESESLDSFTADSDSTSRRDSLDKSGLFPEWKKMSAPKSQVEKETQPGGQNVVFVDEGEMIFKKNTRKILRPSEYTKSVIDLRPEDVVHESGSLGDRSKSVPGLNVDMEEEEEEEDIDHLVKLHRQKLARSSMQSGSSMSTIGSMMSIYSEAGDFGNIFVTGRIAFSLKYEQQTQSLVVHVKECHQLAYADEAKKRSNPYVKTYLLPDKSRQGKRKTSIKRDTINPLYDETLRYEIPESLLAQRTLQFSVWHHGRFGRNTFLGEAEIQMDSWKLDKKLDHCLPLHGKISAESPTGLPSHKGELVVSLKYIPASKTPVGGDRKKSKGGEGGELQVWIKEAKNLTAAKAGGTSDSFVKGYLLPMRNKASKRKTPVMKKTLNPHYNHTFVYNGVRLEDLQHMCLELTVWDREPLASNDFLGGVRLGVGTGISNGEVVDWMDSTGEEVSLWQKMRQYPGSWAEGTLQLRSSMAKQKLGL
Question: Which binding [4] does the source give for B6 here?
Answer: binds
